Source: paper PMC5391204
These are yes or no findings as the source states them, for the method shown. Binding seen in cells or lysates may run through a third protein. Here binding means that the protein was enriched with, or labelled near, the bait; the list need not be complete.

Sequences of proteins named here, by UniProt entry; tags and fusion partners are left off.
UniProt P61421: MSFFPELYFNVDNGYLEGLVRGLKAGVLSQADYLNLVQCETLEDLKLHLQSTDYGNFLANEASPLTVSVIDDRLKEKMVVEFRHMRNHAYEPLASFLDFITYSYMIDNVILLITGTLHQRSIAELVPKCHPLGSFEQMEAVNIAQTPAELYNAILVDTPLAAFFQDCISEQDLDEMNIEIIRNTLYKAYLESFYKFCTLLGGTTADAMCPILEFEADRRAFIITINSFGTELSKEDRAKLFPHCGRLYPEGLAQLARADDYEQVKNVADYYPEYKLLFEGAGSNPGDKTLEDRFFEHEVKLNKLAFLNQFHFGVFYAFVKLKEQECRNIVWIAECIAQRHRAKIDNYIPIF
UniProt Q9Y487: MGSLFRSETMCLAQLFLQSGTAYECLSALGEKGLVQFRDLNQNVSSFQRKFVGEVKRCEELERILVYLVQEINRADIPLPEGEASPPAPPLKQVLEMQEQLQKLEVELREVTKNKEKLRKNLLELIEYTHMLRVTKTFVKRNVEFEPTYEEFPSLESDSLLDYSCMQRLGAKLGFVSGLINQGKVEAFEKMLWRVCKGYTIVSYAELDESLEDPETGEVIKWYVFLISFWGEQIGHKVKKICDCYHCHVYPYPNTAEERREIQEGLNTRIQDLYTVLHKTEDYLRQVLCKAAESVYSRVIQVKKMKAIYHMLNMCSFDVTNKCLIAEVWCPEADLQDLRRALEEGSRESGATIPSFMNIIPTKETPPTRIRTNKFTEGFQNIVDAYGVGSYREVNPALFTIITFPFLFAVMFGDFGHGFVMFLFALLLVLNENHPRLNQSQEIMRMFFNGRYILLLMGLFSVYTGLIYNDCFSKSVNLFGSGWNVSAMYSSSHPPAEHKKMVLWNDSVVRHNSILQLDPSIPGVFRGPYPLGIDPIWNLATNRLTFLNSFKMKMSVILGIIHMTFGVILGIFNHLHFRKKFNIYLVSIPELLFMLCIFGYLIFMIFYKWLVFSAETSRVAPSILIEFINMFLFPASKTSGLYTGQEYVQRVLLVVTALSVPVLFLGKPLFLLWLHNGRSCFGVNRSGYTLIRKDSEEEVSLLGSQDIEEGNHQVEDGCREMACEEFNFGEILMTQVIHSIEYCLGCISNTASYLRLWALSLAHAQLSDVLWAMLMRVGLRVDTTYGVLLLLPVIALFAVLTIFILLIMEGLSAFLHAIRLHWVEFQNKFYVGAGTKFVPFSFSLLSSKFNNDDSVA

T1: TMEM199 (human (endogenous in HeLa)) (UniProt Q8N511)
T1 sequence: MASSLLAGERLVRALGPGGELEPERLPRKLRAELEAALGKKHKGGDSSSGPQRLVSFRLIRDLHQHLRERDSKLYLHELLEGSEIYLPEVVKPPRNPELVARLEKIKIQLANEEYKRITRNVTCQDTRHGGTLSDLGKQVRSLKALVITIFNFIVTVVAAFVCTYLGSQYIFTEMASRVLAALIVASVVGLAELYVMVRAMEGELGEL

B1: CCDC115 (coiled-coil domain-containing protein 115) (protein, UniProt Q96NT0 1-180)
chain: MAALDLRAELDSLVLQLLGDLEELEGKRTVLNARVEEGWLSLAKARYAMGAKSVGPLQYASHMEPQVCLHASEAQEGLQKFKVVRAGVHAPEEVGPREAGLRRRKGPTKTPEPESSEAPQDPLNWFGILVPHSLRQAQASFRDGLQLAADIASLQNRIDWGRSQLRGLQEKLKQLEPGAA

target: T1, TMEM199 (human (endogenous in HeLa)); experiment: affinity purification with mass spectrometry; endogenous TMEM199 immunoprecipitated with the TMEM199 antibody on Dynabeads Protein G, 3 hr at 4°C, from wildtype HeLa cells lysed in 1% NP-40; TMEM199 KO HeLa cells as control; hits with unique peptide count >2

binding, binds:
ATP6V0D1 (from UniProt P61421 1-351)
ATP6V0A2 (from UniProt Q9Y487 1-856)
B1
